The source of these data is PubChem BioAssay AID493014 (National Center for Advancing Translational Sciences (NCATS), 2011).

The structures appear in SMILES notation. This is one part of the list. Shown are side measurements of this screen, not its main read-out; they come without a call. Most of these compounds were active or inconclusive in the main read-out, so they are no random draw. Words in brackets tell the shape of the fitted curve; partial curves, single points and poor fits give uncertain potencies. Square brackets hold non-standard residues; d marks the D form. Peptide text beside a SMILES is read from it. * marks the point of attachment. ξ: configuration not given here. Cbz = O=C(OCc1ccccc1)*; ξP = O=C(O)C1CCCN1

The experiment in a line: qHTS Assay to Find Inhibitors of Chronic Active B-Cell Receptor Signaling. The conditions noted are these: ABC-DLBCL IkBa-CBG/CBR reporter, luminescence ratio (green luciferase fused to IkBa over red control in TMD8 lymphoma cells), 4 h. The procedure, abridged: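 Compounds up to 46 uM were incubated four hours with TMD8 cells whose green CBG68 luciferase is fused to IkappaBalpha; red CBR luminescence normalised the signal, and concentration-effect curves were fitted to fusion, red and ratio data.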
Background: Quantitative high-throughput screening tests each substance at several concentrations.

Setting [1] is: measured here: CBR red luminescence, cell number.
[2] abbreviates: measured here: IkBa-CBG green luminescence.

The AC50 is the concentration giving half of the maximal activity seen. Consider `Cc1nn(C)c(C(=O)NC(=S)Nc2ccccc2Br)c1Cl`, for which, under setting [1], the AC50 was 6.31 µM [rising, partial curve, poor fit].

On to `Brc1cc2c(cc1/C=N/Nc1nc3ccccc3s1)OCO2`, for which the AC50 under setting [1] was 0.2 µM [rising, full curve, poor fit].

For the compound `Cc1cccc(NC(=O)COC(=O)c2ccc(C)c(S(=O)(=O)N3CCCCC3)c2)c1`, the AC50 under setting [1] was 4.61 µM [falling, full curve].

Take `CN1C(=O)C(C)(C)c2cc(S(=O)(=O)N3CCCC(C(=O)NCc4ccc(Cl)cc4)C3)ccc21` (configuration not stated): the AC50 under setting [1] is 2.51 µM [falling, partial curve, poor fit].

In the case of `CCCCCCn1c(=O)[nH]c2nc3cc(N)c(C)cc3nc2c1=O`, the AC50 under setting [1] is 25.9 µM [rising, partial curve].

As to `NNC(=O)CN1CCCc2ccccc21`, the AC50 under setting [1] is 14.1 µM [rising, single point].

As for `O=C(COc1ccc(Br)cc1Br)NNC(=O)c1cccs1`, the AC50 under setting [1] was 2 µM [rising, partial curve, poor fit].

Turning to `COc1ccc(C2OC(=O)CC2C(=O)NCc2ccc(Cl)cc2)cc1OC` (configuration not stated), the AC50 under setting [1] was 12.6 µM [rising, single point].

As for `CC(Oc1ccccc1Cl)C(=O)N1CCOCC1` (configuration not stated), the AC50 under setting [1] is 29.1 µM [rising, single point].

`CC12CC(NC(=O)N1c1cccc(C(=O)N3CCN(c4ccccc4F)CC3)c1)c1ccccc1O2` (configuration not stated): the AC50 under setting [1] is 0.461 µM [falling, full curve].

Consider `O=C(CCN1CCN(c2ccccc2)CC1)c1ccc(Br)cc1`, for which the AC50 under setting [1] is 35.5 µM [falling, single point] and the AC50 under setting [2] was 35.5 µM [rising, partial curve, poor fit].

Take `CC(C)(C)n1nnnc1SCC(=O)Nc1nn(-c2ccccc2)nc1C(N)=O`: the AC50 under setting [1] was 0.501 µM [falling, full curve, poor fit].

Take `Cc1c(NC(=O)COC(=O)c2cccn2C)c(=O)n(-c2ccccc2)n1C`: the AC50 under setting [1] was 29.1 µM [rising, single point].

Turning to `C=CCSc1nc(N)c(C#N)c(-c2ccccc2)c1C#N`, under setting [1], the AC50 is 0.501 µM [rising, full curve].

For `O=C(CCN1C(=O)C2C3CCC(C3)C2C1=O)Nc1ccc(Cl)cc1Cl` (configuration not stated), the AC50 under setting [1] was 5.62 µM [falling, single point].

As to `CCOC(=O)c1csc(NC(=O)c2ccc(N3C(=O)CCC3=O)cc2)n1`, the AC50 under setting [1] was 5.62 µM [falling, full curve, poor fit].

Regarding `Cc1cc(C)n(S(=O)(=O)/C=C/c2ccccc2)n1`, under setting [1], the AC50 is 15.8 µM [falling, single point].

Take `CN(Cc1ccc(Br)cc1)CC(O)COc1cccc(Br)c1` (configuration not stated): under setting [1], the AC50 is 11.2 µM [falling, partial curve].

Take `Cc1cc(C)nc(NC(=S)Nc2cccc(F)c2)c1`: the AC50 under setting [1] was 0.1 µM [rising, full curve, poor fit].

As for `O=C(/C=C/c1ccc(Cl)cc1)NC(=S)Nc1ccc(N2CCOCC2)c(Cl)c1`, the AC50 under setting [1] was 14.6 µM [falling, partial curve, poor fit].

Take `COc1cccc(C(=O)NN2C(=S)N(c3ccccc3)C(=O)C2CC(N)=O)c1` (configuration not stated): the AC50 under setting [1] was 7.08 µM [falling, partial curve].

Turning to `CC(=O)Nc1ccc(Nc2cc(-c3ccccc3)nc3ncnn23)cc1`, under setting [1], the AC50 is 11.2 µM [falling, partial curve, poor fit].

With `COc1ccc(C(=O)Nc2cccc(C(C)=O)c2)c(OC)c1OC`, the concentration at half-maximal activity (AC50) under setting [1] was 14.6 µM [falling, single point].

Consider `CCC1CCCCN1Cc1nc2c(c(=O)n(C)c(=O)n2C)n1CCC(C)C` (configuration not stated), for which the AC50 under setting [1] was 0.146 µM [rising, full curve, poor fit].

In the case of `CCOC(=O)CSc1nnc2c(n1)C1(C)CCC2C1(C)C` (configuration not stated), the AC50 under setting [1] was 3.55 µM [rising, single point].

As for `COc1ccc(C=NNc2ccc(S(=O)(=O)Nc3ccccc3C(=O)O)cc2[N+](=O)[O-])c(OC)c1`, under setting [1], the AC50 is 5.8 µM [rising, single point].

Turning to `COc1ccc(CNc2ccc([N+](=O)[O-])cn2)cc1`, under setting [1], the AC50 was 4.47 µM [rising, partial curve].

Turning to `Cn1c(C(=O)OCC(=O)NCc2ccc(F)cc2)cc2occc21`, under setting [1], the AC50 is 23.1 µM [rising, partial curve, poor fit].

Turning to `O=C(NNC(=O)c1ccccc1Cl)c1ccc2c(=O)n3c(nc2c1)CCC3`, under setting [1], the AC50 was 16.4 µM [falling, partial curve, poor fit].

Take `O=C(COC(=O)CSc1ccccc1)Nc1ccc(F)cc1F`: the AC50 under setting [1] is 29.1 µM [rising, single point].

`COc1ccc(CCn2c(N)cc(=O)[nH]c2=S)cc1OC`: the AC50 was 0.92 µM [rising, full curve, poor fit] under setting [1] and 23.1 µM [falling, partial curve] under setting [2].

As for `CCN(CC)S(=O)(=O)c1ccc(/C=C/C(=O)Nc2ccccc2N2CCOCC2)cc1`, under setting [1], the AC50 is 2 µM [rising, partial curve, poor fit].

In the case of `COc1cc(OC)cc(C(=O)NCc2n[nH]c(=S)n2-c2ccccc2OC)c1`, the AC50 under setting [1] is 0.366 µM [falling, full curve].

In the case of `O=C(CN1CCC(O)(c2ccc3c(c2)OCO3)CC1)OC1CCCCC1`, the AC50 under setting [1] is 1.03 µM [falling, full curve, poor fit].

Take `CCN(CC)c1ccc(Nc2cc3n(c(=O)n2)CCc2cc(OC)c(OC)cc2-3)cc1`: the AC50 under setting [2] is 7.08 µM [falling, partial curve].

As to `COC(=O)CNC(=O)C1CCCN1C(=O)CNC(=O)OCc1ccccc1` (stereo not drawn) (Cbz-Gly-[ξP]-Gly-OMe), the AC50 under setting [1] is 3.55 µM [rising, partial curve, poor fit].

Consider `Nc1c(N(CCO)C(=O)C2CCCCC2)c(=O)[nH]c(=O)n1Cc1ccccc1`, for which the AC50 under setting [1] is 3.55 µM [rising, partial curve, poor fit].

Regarding `O=C(Nc1nnc(-c2ccccn2)o1)c1ccc(Br)cc1`, the AC50 under setting [1] is 10.3 µM [falling, partial curve].

Take `CC(NC(=O)c1ccco1)C(=O)N1CCc2ccccc2C1` (configuration not stated): the AC50 under setting [1] is 16.4 µM [falling, single point].

Take `COc1ccc2c(=O)c3c(=O)n(Cc4ccco4)c(-c4cc(OC)c(OC)c(OC)c4)nc3oc2c1`: the concentration at half-maximal activity (AC50) under setting [1] is 6.51 µM [falling, partial curve].
